Reference: patent US10822723
No constants are given. Whether binding was seen depends on the method and setting. For some assays here: In cells and extracts the contact can be indirect. Some results given as binding are weak or reduced against the parent protein; the word gives no strength.

The chains behind the UniProt entries cited, without tags or fusion partners. Where a name states a change or a piece, a line headed by the entry shows the natural chain unless it says otherwise. Residues count along the entry.
UniProt O96013: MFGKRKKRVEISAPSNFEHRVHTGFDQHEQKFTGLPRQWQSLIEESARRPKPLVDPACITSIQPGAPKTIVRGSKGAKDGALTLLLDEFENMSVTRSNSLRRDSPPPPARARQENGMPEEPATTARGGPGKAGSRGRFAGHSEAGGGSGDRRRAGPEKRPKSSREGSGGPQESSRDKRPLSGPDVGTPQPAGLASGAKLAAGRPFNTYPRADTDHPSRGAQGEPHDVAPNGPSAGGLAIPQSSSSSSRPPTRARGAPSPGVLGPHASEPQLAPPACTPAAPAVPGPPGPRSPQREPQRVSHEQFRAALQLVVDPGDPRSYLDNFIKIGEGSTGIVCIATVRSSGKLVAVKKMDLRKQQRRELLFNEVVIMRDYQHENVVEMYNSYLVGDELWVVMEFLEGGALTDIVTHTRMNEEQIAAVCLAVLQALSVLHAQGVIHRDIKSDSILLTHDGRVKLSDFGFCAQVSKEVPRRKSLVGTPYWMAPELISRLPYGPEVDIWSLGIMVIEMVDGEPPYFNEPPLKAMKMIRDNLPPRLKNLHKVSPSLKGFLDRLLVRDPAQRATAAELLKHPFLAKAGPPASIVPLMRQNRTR
Flag-PAK4cat, catalytic domain of human PAK4 expressed in mammalian cells: residues 286-591 of O96013
UniProt Q9NTI7: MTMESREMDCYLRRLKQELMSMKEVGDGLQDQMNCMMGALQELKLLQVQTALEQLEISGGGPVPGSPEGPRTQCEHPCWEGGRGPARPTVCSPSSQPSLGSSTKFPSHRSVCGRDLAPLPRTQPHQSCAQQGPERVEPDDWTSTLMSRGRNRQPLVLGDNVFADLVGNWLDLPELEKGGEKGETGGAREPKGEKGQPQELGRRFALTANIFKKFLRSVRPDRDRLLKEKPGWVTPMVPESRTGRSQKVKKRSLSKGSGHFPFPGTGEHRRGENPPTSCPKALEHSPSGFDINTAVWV
UniProt Q96EL1, residues 166-203: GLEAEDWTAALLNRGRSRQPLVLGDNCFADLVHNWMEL

Columns and labels:
[1] = molecular target: FLAG-tagged wild type PAK4 (human) (UniProt O96013); assay: co-immunoprecipitation
[2] = molecular target: Flag-PAK4cat, catalytic domain of human PAK4 expressed in mammalian cells (human) (UniProt O96013); assay: co-expression with PAK4cat in mammalian cells, formation of co-crystals

For Inka2 (from UniProt Q9NTI7 1-297), the binding [1] was “binds”.

In the case of “HA-tagged Inka1 (166-203) (from UniProt Q96EL1 166-203)”, the binding [2] is reported as “binds”.
